In publication doi:10.1101/2020.06.26.173831:
These are yes or no findings as the source states them, for the method shown. In cells and extracts the contact can be indirect. Some results given as binding are weak or reduced against the parent protein; the word gives no strength. Tags and fused reporters may be left off the sequences shown. Blank lines part the entries; values can stand above or below the binder they belong to.

Assays:
Get3-GFP (S. cerevisiae) = target: T1, Get3-GFP (S. cerevisiae) (UniProt Q12154); assay: co-IP
T1 sequence: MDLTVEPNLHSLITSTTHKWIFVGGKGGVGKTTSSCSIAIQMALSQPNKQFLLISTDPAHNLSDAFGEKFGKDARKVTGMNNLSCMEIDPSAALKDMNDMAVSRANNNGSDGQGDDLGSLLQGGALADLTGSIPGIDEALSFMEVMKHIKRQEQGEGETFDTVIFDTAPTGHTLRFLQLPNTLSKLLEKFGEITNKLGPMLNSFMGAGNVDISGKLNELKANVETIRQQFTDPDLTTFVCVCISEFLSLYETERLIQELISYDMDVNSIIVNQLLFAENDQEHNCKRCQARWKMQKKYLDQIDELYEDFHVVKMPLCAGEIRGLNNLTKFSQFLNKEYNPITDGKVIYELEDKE

[1] = target: T2, GFP-tagged Oac1 (S. cerevisiae) (UniProt P32332); assay: co-IP
T2 sequence: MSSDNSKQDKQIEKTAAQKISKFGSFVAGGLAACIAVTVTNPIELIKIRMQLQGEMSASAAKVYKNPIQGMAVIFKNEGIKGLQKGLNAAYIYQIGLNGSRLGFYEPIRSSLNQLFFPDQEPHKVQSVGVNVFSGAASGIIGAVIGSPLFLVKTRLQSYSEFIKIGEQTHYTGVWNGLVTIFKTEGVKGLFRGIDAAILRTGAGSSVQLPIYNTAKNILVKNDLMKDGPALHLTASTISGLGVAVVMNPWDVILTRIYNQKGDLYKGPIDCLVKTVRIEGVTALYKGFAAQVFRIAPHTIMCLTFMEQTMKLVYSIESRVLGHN

binding (Get3-GFP (S. cerevisiae)): no binding
B1: Alo1-FLAG (protein, UniProt P54783 1-526)
chain: MSTIPFRKNYVFKNWAGIYSAKPERYFQPSSIDEVVELVKSARLAEKSLVTVGSGHSPSNMCVTDEWLVNLDRLDKVQKFVEYPELHYADVTVDAGMRLYQLNEFLGAKGYSIQNLGSISEQSVAGIISTGSHGSSPYHGLISSQYVNLTIVNGKGELKFLDAENDPEVFKAALLSVGKIGIIVSATIRVVPGFNIKSTQEVITFENLLKQWDTLWTSSEFIRVWWYPYTRKCVLWRGNKTTDAQNGPAKSWWGTKLGRFFYETLLWISTKIYAPLTPFVEKFVFNRQYGKLEKSSTGDVNVTDSISGFNMDCLFSQFVDEWGCPMDNGLEVLRSLDHSIAQAAINKEFYVHVPMEVRCSNTTLPSEPLDTSKRTNTSPGPVYGNVCRPFLDNTPSHCRFAPLENVTNSQLTLYINATIYRPFGCNTPIHKWFTLFENTMMVAGGKPHWAKNFLGSTTLAAGPVKKDTDYDDFEMRGMALKVEEWYGEDLKKFRKIRKEQDPDNVFLANKQWAIINGIIDPSELSD

binding (Get3-GFP (S. cerevisiae)): binds
B2: Oac1-FLAG (protein, UniProt P32332 1-324)
chain: T2 sequence

binding (Get3-GFP (S. cerevisiae)): no binding
B3: Tom70 (protein, UniProt P07213 1-617)
chain: MKSFITRNKTAILATVAATGTAIGAYYYYNQLQQQQQRGKKNTINKDEKKDTKDSQKETEGAKKSTAPSNPPIYPVSSNGEPDFSNKANFTAEEKDKYALALKDKGNQFFRNKKYDDAIKYYNWALELKEDPVFYSNLSACYVSVGDLKKVVEMSTKALELKPDYSKVLLRRASANEGLGKFADAMFDLSVLSLNGDFNDASIEPMLERNLNKQAMSKLKEKFGDIDTATATPTELSTQPAKERKDKQENLPSVTSMASFFGIFKPELTFANYDESNEADKELMNGLSNLYKRSPESYDKADESFTKAARLFEEQLDKNNEDEKLKEKLAISLEHTGIFKFLKNDPLGAHEDIKKAIELFPRVNSYIYMALIMADRNDSTEYYNYFDKALKLDSNNSSVYYHRGQMNFILQNYDQAGKDFDKAKELDPENIFPYIQLACLAYRENKFDDCETLFSEAKRKFPEAPEVPNFFAEILTDKNDFDKALKQYDLAIELENKLDGIYVGIAPLVGKATLLTRNPTVENFIEATNLLEKASKLDPRSEQAKIGLAQMKLQQEDIDEAITLFEESADLARTMEEKLQAITFAEAAKVQQRIRSDPVLAKKIQETLAKLREQGLM

binding [1]: binds
B4: FLAG-tagged Get3 (protein, UniProt Q12154 1-354)
chain: T1 sequence
